Laboratory results as given in PMC7347935, “STK11 (LKB1) missense somatic mutant isoforms promote tumor growth, motility and inflammation” (Communications Biology, 2020).
These are yes or no findings as the source states them, for the method shown. Binding seen in cells or lysates may run through a third protein. Some results given as binding are weak or reduced against the parent protein; the word gives no strength.

Target: T1, LKB1^WT (STK11, Liver kinase 1), wild-type isoform (human) (UniProt Q15831)
T1 sequence: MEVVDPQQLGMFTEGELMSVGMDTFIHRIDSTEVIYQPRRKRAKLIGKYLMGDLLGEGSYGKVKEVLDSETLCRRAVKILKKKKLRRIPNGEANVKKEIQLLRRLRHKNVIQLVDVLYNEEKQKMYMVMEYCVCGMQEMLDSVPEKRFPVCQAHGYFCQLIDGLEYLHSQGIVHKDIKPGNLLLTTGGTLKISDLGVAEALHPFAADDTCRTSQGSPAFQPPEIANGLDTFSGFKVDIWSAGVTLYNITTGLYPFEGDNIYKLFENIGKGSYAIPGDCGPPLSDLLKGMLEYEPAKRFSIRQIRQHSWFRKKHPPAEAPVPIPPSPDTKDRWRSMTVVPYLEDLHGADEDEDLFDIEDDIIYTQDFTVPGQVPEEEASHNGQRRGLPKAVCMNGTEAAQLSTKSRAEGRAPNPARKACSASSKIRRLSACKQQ
Experiment: co-IP; LKB1 immunocomplexes from A549 and G361 cells expressing doxycycline-induced LKB1 isoforms; STRADα detected by western blot; duplicate immunoprecipitates for each isoform

binding: binds
B1: STRADα (natural protein, human (endogenous in A549 and G361), UniProt Q7RTN6 1-431, looked up)
chain: MSFLVSKPERIRRWVSEKFIVEGLRDLELFGEQPPGDTRRKTNDASSESIASFSKQEVMSSFLPEGGCYELLTVIGKGFEDLMTVNLARYKPTGEYVTVRRINLEACSNEMVTFLQGELHVSKLFNHPNIVPYRATFIADNELWVVTSFMAYGSAKDLICTHFMDGMNELAIAYILQGVLKALDYIHHMGYVHRSVKASHILISVDGKVYLSGLRSNLSMISHGQRQRVVHDFPKYSVKVLPWLSPEVLQQNLQGYDAKSDIYSVGITACELANGHVPFKDMPATQMLLEKLNGTVPCLLDTSTIPAEELTMSPSRSVANSGLSDSLTTSTPRPSNGDSPSHPYHRTFSPHFHHFVEQCLQRNPDARPSASTLLNHSFFKQIKRRASEALPELLRPVTPITNFEGSQSQDHSGIFGLVTNLEELEVDDWEF
